# The other results are listed elsewhere or left out.
# Compound: CC1Cc2ccccc2N1C(=O)C1CCCN(C1)C(=O)CCl (mixture of isomers) [TRIM25 ligand 11 (diastereomer mixture)]
# Experiment: probe-labelled cysteine peptide fold change vs DMSO (competition) (log2 fold change); higher = less target engagement (more negative = stronger competition)
# Conditions: 10 µM; THP-1; incubation time: 4 h
# 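Also: competitive chemoproteomic profiling in live THP-1 cells with an iodoacetamide desthiobiotin (IA-DTB) probe, comparing probe-labelled peptide intensities in compound-treated cells against DMSO-treated controls.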
row,Target,probe-labelled cysteine peptide fold change
1,PTPRJ_Q12913_1149_CEEYWPSK (UniProt Q12913),0.189
2,PTPRG_P23470_858_CTADMNITAEHSNHPENK (UniProt P23470),0.0217
3,PTK2B_Q14289_298_QLTSQDAKPTCLAEFK (UniProt Q14289),-0.00395
4,PSMD14_O00487_299_RHLEEHVDVLMTSNIVQCLAAMLDTVVFK (UniProt O00487),-0.25
5,PSMD11_O00231_257_YMLLCK (UniProt O00231),0.162
6,PTPRC_P08575_311_FQLHDCTQVEK (UniProt P08575),0.0997
7,PSMD13_Q9UNM6_49_KLWHQLTLQVLDFVQDPCFAQGDGLIK (UniProt Q9UNM6),-0.149
8,PTPN1_P18031_121_CAQYWPQK (UniProt P18031),-0.0476
9,PTPN11_Q06124_567_YSLADQTSGDQSPLPPCTPTPPCAEMR (UniProt Q06124),-0.0215
10,PTCD1_O75127_695_EADDGCALGGR (UniProt O75127),-0.117
11,PSMD12_O00232_74_MCYEAK (UniProt O00232),0.037
12,PTPN6_P29350_361_CVPYWPEVGMQR (UniProt P29350),0.143
13,PSMD7_P51665_116_RYCPNSVLVIIDVKPK (UniProt P51665),0.0251
14,PSMC4_P43686_210_GVLMYGPPGCGK (UniProt P43686),-0.0493
15,PSME4_Q14997_798_LQHCGDGK (UniProt Q14997),0.126
16,PSMC2_P35998_236_TDACFIR (UniProt P35998),-0.118
17,PTPN1_P18031_231_SGTFCLADTCLLLMDK (UniProt P18031),0.0706
18,PTK2B_Q14289_180_VSEGMALQLGCLELR (UniProt Q14289),-0.0405
19,PSMD9_O00233_216_GLLGCNIIPLQR (UniProt O00233),-0.0224

row,Target,probe-labelled cysteine peptide fold change
1,PSME3_P61289_92_RLDECEEAFQGTK (UniProt P61289),-0.0241
2,PSMC6_P62333_170_GCLLYGPPGTGK (UniProt P62333),-0.0424
3,PTK2B_Q14289_395_SHLSESCSIESDIYAEIPDETLR (UniProt Q14289),0.156
4,PSD4_Q8NDX1_933_SHENCLDAAADDLLDLQR (UniProt Q8NDX1),-0.0584
5,PSMC2_P35998_270_ACLIFFDEIDAIGGAR (UniProt P35998),0.0698
6,PSMA6_P60900_115_YGYEIPVDMLCK (UniProt P60900),-0.0584
7,PTCD3_Q96EY7_260_NEHSYCTMIR (UniProt Q96EY7),0.0725
8,PTBP3_O95758_55_RDRPPCSPSR (UniProt O95758),0.129
9,PSMD1_Q99460_112_QCVENADLPEGEK (UniProt Q99460),0.0605
10,PSMB8_P28062_7_ALLDVCGAPR (UniProt P28062),-0.148
11,PTPN11_Q06124_318_CNNSKPK (UniProt Q06124),-0.259
12,PSTPIP2_Q9H939_65_KKPCGQSEINTLK (UniProt Q9H939),-0.0693
13,PTDSS1_P48651_419_TYSECEDGTYSPEISWHHR (UniProt P48651),0.519
14,PTPN7_P35236_62_SLGAVEPICSVNTPR (UniProt P35236),-0.0974
15,PSMA3_P25788_42_CKDGVVFGVEK (UniProt P25788),-0.482
16,PSMD6_Q15008_188_VYQGLYCVAIR (UniProt Q15008),-0.0246
17,PTPRC_P08575_344_FQCGNMIFDNK (UniProt P08575),-0.0774
18,PTK2B_Q14289_650_LPKPDLCPPVLYTLMTR (UniProt Q14289),-0.0455
19,PSMD11_O00231_289_CVAQASK (UniProt O00231),0.0832

# Same assay, conditions: 50 µM; THP-1; incubation time: 4 h
row,Target,probe-labelled cysteine peptide fold change
1,PTPRJ_Q12913_1149_CEEYWPSK (UniProt Q12913),0.205
2,PTPRG_P23470_858_CTADMNITAEHSNHPENK (UniProt P23470),-0.141
3,PTK2B_Q14289_298_QLTSQDAKPTCLAEFK (UniProt Q14289),-0.0466
4,PSMD14_O00487_299_RHLEEHVDVLMTSNIVQCLAAMLDTVVFK (UniProt O00487),-0.0286
5,PSMD11_O00231_257_YMLLCK (UniProt O00231),0.211
6,PTPRC_P08575_311_FQLHDCTQVEK (UniProt P08575),-0.155
7,PSMD13_Q9UNM6_49_KLWHQLTLQVLDFVQDPCFAQGDGLIK (UniProt Q9UNM6),-0.154
8,PTPN1_P18031_121_CAQYWPQK (UniProt P18031),-0.0308
9,PTPN11_Q06124_567_YSLADQTSGDQSPLPPCTPTPPCAEMR (UniProt Q06124),-0.086
10,PTCD1_O75127_695_EADDGCALGGR (UniProt O75127),-0.18
11,PSMD12_O00232_74_MCYEAK (UniProt O00232),0.0458
12,PTPN6_P29350_361_CVPYWPEVGMQR (UniProt P29350),-0.194
13,PSMD7_P51665_116_RYCPNSVLVIIDVKPK (UniProt P51665),0.168
14,PSMC4_P43686_210_GVLMYGPPGCGK (UniProt P43686),-0.126
15,PSME4_Q14997_798_LQHCGDGK (UniProt Q14997),0.154
16,PSMC2_P35998_236_TDACFIR (UniProt P35998),0.0228
17,PTPN1_P18031_231_SGTFCLADTCLLLMDK (UniProt P18031),0.029
18,PTK2B_Q14289_180_VSEGMALQLGCLELR (UniProt Q14289),0.1
19,PSMD9_O00233_216_GLLGCNIIPLQR (UniProt O00233),0.265

row,Target,probe-labelled cysteine peptide fold change
1,PSME3_P61289_92_RLDECEEAFQGTK (UniProt P61289),-0.176
2,PSMC6_P62333_170_GCLLYGPPGTGK (UniProt P62333),0.00274
3,PTK2B_Q14289_395_SHLSESCSIESDIYAEIPDETLR (UniProt Q14289),-0.413
4,PSD4_Q8NDX1_933_SHENCLDAAADDLLDLQR (UniProt Q8NDX1),-0.157
5,PSMC2_P35998_270_ACLIFFDEIDAIGGAR (UniProt P35998),0.0961
6,PSMA6_P60900_115_YGYEIPVDMLCK (UniProt P60900),-0.105
7,PTCD3_Q96EY7_260_NEHSYCTMIR (UniProt Q96EY7),0.00912
8,PTBP3_O95758_55_RDRPPCSPSR (UniProt O95758),0.254
9,PSMD1_Q99460_112_QCVENADLPEGEK (UniProt Q99460),0.00508
10,PSMB8_P28062_7_ALLDVCGAPR (UniProt P28062),-0.0898
11,PTPN11_Q06124_318_CNNSKPK (UniProt Q06124),-0.379
12,PSTPIP2_Q9H939_65_KKPCGQSEINTLK (UniProt Q9H939),-0.125
13,PTDSS1_P48651_419_TYSECEDGTYSPEISWHHR (UniProt P48651),-0.0714
14,PTPN7_P35236_62_SLGAVEPICSVNTPR (UniProt P35236),-0.0912
15,PSMA3_P25788_42_CKDGVVFGVEK (UniProt P25788),-0.223
16,PSMD6_Q15008_188_VYQGLYCVAIR (UniProt Q15008),0.231
17,PTPRC_P08575_344_FQCGNMIFDNK (UniProt P08575),-0.137
18,PTK2B_Q14289_650_LPKPDLCPPVLYTLMTR (UniProt Q14289),-0.11
19,PSMD11_O00231_289_CVAQASK (UniProt O00231),-0.051

# Source: the supplement of paper PMC12067093, “Discovery and optimisation of a covalent ligand for TRIM25 and its application to targeted protein ubiquitination” (Chemical Science, 2025)
